In article PMC12295313 (2025):
These are yes or no findings as the source states them, for the method shown. Some entries that bind do so weakly or less than the wild type. Tags and fused reporters may be left off the sequences shown.

Biological target: T1, FGFR1c ectodomain (extracellular ligand-binding domain of FGFR1c), P11362
T1 chain: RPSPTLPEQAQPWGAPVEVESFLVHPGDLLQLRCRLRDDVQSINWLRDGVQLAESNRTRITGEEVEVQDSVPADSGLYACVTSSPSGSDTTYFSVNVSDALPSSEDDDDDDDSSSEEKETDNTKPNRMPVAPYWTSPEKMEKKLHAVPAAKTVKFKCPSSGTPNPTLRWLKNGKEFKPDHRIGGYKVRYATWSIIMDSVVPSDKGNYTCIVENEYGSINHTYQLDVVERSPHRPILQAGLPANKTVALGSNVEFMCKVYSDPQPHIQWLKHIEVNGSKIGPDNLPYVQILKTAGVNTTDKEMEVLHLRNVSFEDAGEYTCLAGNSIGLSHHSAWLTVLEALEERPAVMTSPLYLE
Assay: SPR; Biacore T200; ligand-binding region of FGFR1c amine-coupled to a CM5 chip; FGF21^WT or FGF21^D2D3 injected at increasing concentrations for 180 s at 50 uL/min; HBS-EP buffer (10 mM HEPES-NaOH pH 7.4, 150 mM NaCl, 3 mM EDTA, 0.005% Surfactant P20); Kd from fitted saturation binding curves; both purified
Settings: remark: other sources report otherwise

binding: binds
B1: Recombinant human wild-type FGF21 (His29-Ser209), Q9NSA1 29-209 (protein)
chain: HPIPDSSPLLQFGGQVRQRYLYTDDAQQTEAHLEIREDGTVGGAADQSPESLLQLKALKPGVIQILGVKTSRFLCQRPDGALYGSLHFDPEACSFRELLLEDGYNVYQSEAHGLPLHLPGNKSPHRDPAPRGPARFLPLPGLPPALPEPPGILAPQPPDVGSSDPLSMVGPSQGRSPSYAS
